# Test results reported in publication PMC7819943, “Rice protein-binding microarrays: a tool to detect cis-acting elements near promoter regions in rice”.
# This is one part of the list.
# Target: T1, OsSMF1 (Oryza sativa, UniProt Q6ZLB0 1-436)
# T1 sequence: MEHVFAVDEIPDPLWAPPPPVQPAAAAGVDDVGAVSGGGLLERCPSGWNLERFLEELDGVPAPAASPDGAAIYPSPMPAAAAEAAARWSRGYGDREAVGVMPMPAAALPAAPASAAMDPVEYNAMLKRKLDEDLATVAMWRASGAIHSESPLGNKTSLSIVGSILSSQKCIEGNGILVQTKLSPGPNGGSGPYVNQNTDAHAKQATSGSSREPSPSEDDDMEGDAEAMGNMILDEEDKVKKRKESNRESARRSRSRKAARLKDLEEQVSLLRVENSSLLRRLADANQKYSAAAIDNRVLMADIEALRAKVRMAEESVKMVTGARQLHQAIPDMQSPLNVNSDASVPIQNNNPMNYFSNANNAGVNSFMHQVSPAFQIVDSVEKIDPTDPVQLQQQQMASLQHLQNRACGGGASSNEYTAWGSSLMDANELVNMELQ
# Test: protein-binding microarray (RPBM); PBS, 2% BSA, 51.3 ng/ul salmon testes DNA, 50 uM zinc acetate, 200 nM TF, 25 C, 1 h; high values mean tight binding
# Details: protein: recombinant; tags: N-terminal polyhistidine and DsRed monomer fusion (pET32a); chain copies: 2; label: CyDye5-dUTP incorporated in the synthesized complementary strand; 3' TTTTT single-stranded linker to array surface; dsDNA, one strand shown
# How it was run: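 Transcription factors were each fused at the N-terminus to a polyhistidine tag plus DsRed and expressed in E. coli BL21-CodonPlus before Ni–NTA purification. Binding to a double-stranded custom Agilent array was carried out with 200 nM protein at 25 °C for 1 h in PBS, 2% BSA, salmon testes DNA and 50 µM zinc acetate. The binding signal is per-feature fluorescence intensity, in arbitrary units, on an Axon 4000B scanner.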
row,Sequence,binding signal
1,CATTGAGGCCATGTCATGGATGACGTGGATGCAAATCTTCCGGAGTCACCTAGTGCAG,30600 fluorescence intensity (a.u.)
2,CATCCGTACTCCTCCTTCGTGATGCTGACACCCACATCATCGGAGTCACCTAGTGCAG,6720 fluorescence intensity (a.u.)
3,GAGAGGAGGGGCGTTGCCAGGGAGAAGAGGGGTTGCGGGGCGGAGTCACCTAGTGCAG,3820 fluorescence intensity (a.u.)
4,ACTCGAAGTCAAAGTCAAACAGAACAGCCACGTCTGTCTCCGGAGTCACCTAGTGCAG,7390 fluorescence intensity (a.u.)
5,CGGTTGAGCACGTCGTCGTGGTGGTTCTCCTCGGCGGACCCGGAGTCACCTAGTGCAG,3250 fluorescence intensity (a.u.)
6,CTCATCCGACGTTCGTGTCACGATCAAGTTGACACTGACTCGGAGTCACCTAGTGCAG,5570 fluorescence intensity (a.u.)
7,CCGAGAGGACACGCACTAGGCGGAGATGCGTTGGCGGTCGCGGAGTCACCTAGTGCAG,3620 fluorescence intensity (a.u.)
8,ATAAAACGAAAACTGTTTGTTAAGACGTGGCGCATGCATACGGAGTCACCTAGTGCAG,5570 fluorescence intensity (a.u.)
9,TGCAACCACCACCACCACGTCCCAAACTCGCACGTTTCTCCGGAGTCACCTAGTGCAG,4090 fluorescence intensity (a.u.)
10,AATACTTCAAATGTGTTTCCGTATATCCAATGTTACACACCGGAGTCACCTAGTGCAG,36000 fluorescence intensity (a.u.)
11,CTACCGGTCCATCTTGGATAGTAAGCCACGGCAGTGTTCACGGAGTCACCTAGTGCAG,3380 fluorescence intensity (a.u.)
12,CCTTCACACTATGGCTTTACACAACTAGATAAACATCGTCCGGAGTCACCTAGTGCAG,3540 fluorescence intensity (a.u.)
13,GTGAGATTTATCTAACACGCCACACTGATTTGGTTCAATTCGGAGTCACCTAGTGCAG,3580 fluorescence intensity (a.u.)
14,CCGATGATGACGCCACCTACGCCGTCGTCTCCCGTGTGCTCGGAGTCACCTAGTGCAG,6180 fluorescence intensity (a.u.)
15,CTACGCTATCCCCGTATAAAATTTGCGTCACTCCACCATCCGGAGTCACCTAGTGCAG,5100 fluorescence intensity (a.u.)
16,CGCGGAGCTTAAGCTAACGCCCGCCGTTTCGTCGTCATCACGGAGTCACCTAGTGCAG,4520 fluorescence intensity (a.u.)
17,CACGGTGCGGGGCGGTGCGGTGTGGCATCACACGTGTCGCCGGAGTCACCTAGTGCAG,7980 fluorescence intensity (a.u.)
18,CGGGAGAGAAGCCCACGTCACTCCCATAAATGGATGTGGACGGAGTCACCTAGTGCAG,9320 fluorescence intensity (a.u.)
19,AAGTATGACTTGTATCTTAGCATGTTTATACTGATTCGCACGGAGTCACCTAGTGCAG,3800 fluorescence intensity (a.u.)
20,GATAACTCCAGGAGAATTTACTGAGATGGCCTGGGAGGGGCGGAGTCACCTAGTGCAG,4310 fluorescence intensity (a.u.)
21,TAAACCCTAAGTTTCTGTGTCCAACGTTTGACTGTCTGTCCGGAGTCACCTAGTGCAG,3170 fluorescence intensity (a.u.)

# Copied from the list.
# CACGGTGCGGGGCGGTGCGGTGTGGCATCACACGTGTCGCCGGAGTCACCTAGTGCAG | binding signal: 7980 fluorescence intensity (a.u.)
# TAAACCCTAAGTTTCTGTGTCCAACGTTTGACTGTCTGTCCGGAGTCACCTAGTGCAG | binding signal: 3170 fluorescence intensity (a.u.)

# Continuation:

row,Sequence,binding signal
1,TTCCCATAATTCTTTCAAATAGATTTGCATGCGTATTCTTCGGAGTCACCTAGTGCAG,3360 fluorescence intensity (a.u.)
2,TATCCATCCTAGTTGGCGTGCACACGATGATGGTTGACTGCGGAGTCACCTAGTGCAG,4620 fluorescence intensity (a.u.)
3,GTGACCGCCAATCATGAGCTCAACACTCTCTATTCCCTTCCGGAGTCACCTAGTGCAG,8510 fluorescence intensity (a.u.)
4,GGCAAATCTCATGTGCACGGTGCACGGCATGACGTGGCAGCGGAGTCACCTAGTGCAG,33200 fluorescence intensity (a.u.)
5,AACGCGCAGGATCTCCCCACGTGGCGCGGCCCACGTGCGCCGGAGTCACCTAGTGCAG,9720 fluorescence intensity (a.u.)
6,CGGTTAAAATCACCTAAGGATGCAGAGTGATCTGGTTTTGCGGAGTCACCTAGTGCAG,3770 fluorescence intensity (a.u.)
7,TGCGATTTTAGACGATTATCGTGCGATTATCACGGTTATCCGGAGTCACCTAGTGCAG,3360 fluorescence intensity (a.u.)
8,GCTTCATCCATCCATCAGCTGGGCCTGGGCTGGCTTAACTCGGAGTCACCTAGTGCAG,27000 fluorescence intensity (a.u.)
9,TTTAGCTGACGCTGTGACGCATGTTGCTTTCGTTGACAAACGGAGTCACCTAGTGCAG,5600 fluorescence intensity (a.u.)
10,AGTCTCAACATTACATGACACAAGATGATGTAACCTGCAGCGGAGTCACCTAGTGCAG,3660 fluorescence intensity (a.u.)
11,TGTTCTTCTTCACGCCGGCTGCAACTACACCTCTTGCATTCGGAGTCACCTAGTGCAG,3470 fluorescence intensity (a.u.)
12,TGCGAAAGGAACAGTGTTGTGAGGTCGCAATCCCGTCTCGCGGAGTCACCTAGTGCAG,3840 fluorescence intensity (a.u.)
13,CCTGATATCCATGCATGTGTCATCGTTTGCAGTTGTATTGCGGAGTCACCTAGTGCAG,6660 fluorescence intensity (a.u.)
14,TAACTATTTGTCACACCTATCTTAATGACATGTGGATTCACGGAGTCACCTAGTGCAG,3250 fluorescence intensity (a.u.)
15,TGGAAGGGGCAGGTTCGAGGTGCTGTCTGGGTATGTCAATCGGAGTCACCTAGTGCAG,3290 fluorescence intensity (a.u.)
16,CACCCGTGCGTAATCATGACGCCGGGGTGACGTCACCATCCGGAGTCACCTAGTGCAG,30200 fluorescence intensity (a.u.)
17,ACCAACATCAAGTCGTCGGCGCTCGTCAACCAACTCATCACGGAGTCACCTAGTGCAG,3770 fluorescence intensity (a.u.)
18,AATTAGCTGATTTGCAAATGATTTCCACCGTGGTGTGACACGGAGTCACCTAGTGCAG,3840 fluorescence intensity (a.u.)
19,CAGCACAGCAATATTAACCATTCTCTCGATCGAGTCAGAACGGAGTCACCTAGTGCAG,3280 fluorescence intensity (a.u.)
20,GGAGCTACCCCTCTCACCGGCGCGTGGGCCCCACCTCACGCGGAGTCACCTAGTGCAG,4310 fluorescence intensity (a.u.)
21,CGCCCGAGAGCGAACGGCCGTCTGCCACGTCACTTTCGCCCGGAGTCACCTAGTGCAG,29100 fluorescence intensity (a.u.)
